# Measurements reported in PubChem BioAssay AID493014 (National Center for Advancing Translational Sciences (NCATS), 2011).
# Some of the results follow. Further columns of the screen follow, without active or inactive calls. The list favours compounds with an active or inconclusive main result. The note in brackets gives the kind of curve behind each potency; many fits are weak.
# Assay: qHTS Assay to Find Inhibitors of Chronic Active B-Cell Receptor Signaling
# Conditions: ABC-DLBCL IkBa-CBG/CBR reporter, luminescence ratio (green luciferase fused to IkBa over red control in TMD8 lymphoma cells), 4 h
# Outline: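 Doxycycline induced both beetle luciferases in TMD8 lymphoma cells; IKK-driven degradation limits the IkappaBalpha-fused green signal, while red luminescence normalises for cell number and nonspecific effects. Compounds tested up to 46 uM, 4 hrs.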
# [1] = measured here: CBR red luminescence, cell number
# [2] = measured here: IkBa-CBG green luminescence
SMILES,AC50 [1],AC50 [2]
Cc1ccccc1NC(=O)CN1CCC(C(=O)c2ccc3c(c2)OCCO3)CC1,"35.5 µM [falling, single point]",–
Cn1c(SCC(=O)O)nc2ccccc2c1=O,"15.8 µM [falling, partial curve, poor fit]",–
COc1ccc(N(C(=O)Nc2ccc(Cl)cc2)C2=NCCC2)cc1,"8.2 µM [rising, partial curve, poor fit]",–
Cc1ccc(NC(=O)c2cc(S(=O)(=O)N3CCCCC3)cs2)cc1,"2.59 µM [falling, full curve]",–
O=C(NNC(=S)Nc1ccccc1)c1cc(Br)ccc1Cl,"0.316 µM [rising, partial curve, poor fit]",–
CN(C)/C=C/c1c([N+](=O)[O-])c2ccc(O)cc2n1-c1ccccc1,"17.8 µM [falling, partial curve, poor fit]",–
COC(=O)c1sc(N2C(=O)C(=O)/C(=C(/O)c3ccccc3)C2c2ccco2)nc1C (stereo unspecified),"0.731 µM [rising, full curve, poor fit]",–
CC(C)(C)c1csc(N/N=C/c2cccnc2)n1,"22.4 µM [falling, single point]",–
COC(=O)c1cn(C(=O)/C=C/c2ccc(OC)c(OC)c2)c2ccccc12,"31.6 µM [falling, single point]",–
CCCn1c(=O)c2c(c3ccccc31)OC(C)C(=O)N2 (stereo unspecified),"6.51 µM [rising, single point]",–
CC1CN(CC(O)COc2ccccc2C(C)(C)C)CC(C)O1 (stereo unspecified),"29.1 µM [falling, single point]",–
Cc1c(C(=O)N/N=C/c2ccncc2)no[n+]1[O-],"35.5 µM [rising, single point]",–
O=[N+]([O-])c1ccc(COn2nnc3ccccc32)cc1,"1.78 µM [rising, partial curve, poor fit]",–
C/C(=N/NC(=O)c1cc2ccccc2cc1O)C1C(=O)c2ccccc2C1=O,"0.103 µM [falling, full curve]",–
COc1ccc(/C=N/Nc2cc(OC)ncn2)cc1,"3.26 µM [rising, single point]",–
COc1ccc(C(=O)Nn2c(SCC(=O)NCc3ccco3)nc3ccccc3c2=O)cc1,"3.98 µM [falling, partial curve]",–
COCCN(C(=O)CN1CCc2ccccc2C1)c1c(N)n(Cc2ccccc2)c(=O)[nH]c1=O,"35.5 µM [falling, single point]",–
COc1ccccc1NS(=O)(=O)NC(=O)c1c(C)[nH]c2ccccc12,"20 µM [falling, partial curve, poor fit]",–
O=C(c1ccccc1)c1c(O)cc(-c2ccccc2)oc1=O,"11.6 µM [falling, partial curve]",–
O=C(Nc1ccc(S(=O)(=O)N2CCCC2)cc1)c1ccc2c(=O)n3c(nc2c1)CCCCC3,"29.1 µM [falling, single point]",–
COC(=O)c1cc(CNC(=O)c2ccc(N3CCCC3)c([N+](=O)[O-])c2)ccc1OC,"7.08 µM [rising, partial curve, poor fit]",–

SMILES,AC50 [1],AC50 [2]
CCN1C(=O)C(CC(=O)Nc2ccccc2)S/C1=N\c1ccccn1 (stereo unspecified),"1.26 µM [rising, full curve]",–
COc1ccccc1-n1cnnc1SCC(=O)Nc1ncc(Cl)cc1Cl,"12.6 µM [falling, partial curve]",–
Cc1ccc(NC(=O)c2ccc(S(=O)(=O)N3CCC(C)CC3)cc2)nc1,"20.6 µM [falling, single point]",–
Cc1ccn2c(c1)nc(=O)c1cc(S(=O)(=O)N3CCCCC3)ccc12,"3.98 µM [rising, full curve, poor fit]",–
COC(=O)C1C(c2ccc(OC)cc2)Nc2nnc(C(F)(F)F)n2C1(C)O (stereo unspecified),"12.6 µM [falling, single point]",–
C=C(C)CSc1nc2c(c(=O)[nH]c(=O)n2C)n1CCC(C)C,"29.1 µM [rising, single point]",–
COc1ccc2nc(NC(=O)Cn3cnc4ccccc4c3=O)sc2c1,"2.51 µM [falling, partial curve, poor fit]",–
CCc1ccc(NC(=O)Cc2c(C(=O)O)n(C)c3ccccc23)cc1,"0.708 µM [rising, full curve]",–
Cc1cccc(C)c1NC1=NC(C)(C)N=C(N)N1,"22.4 µM [rising, partial curve, poor fit]",–
Cc1c(CCC(=O)N[C@@H](C)C(=O)O)c(=O)oc2cc3oc4c(c3cc12)CCCC4,"3.55 µM [rising, single point]","8.91 µM [falling, partial curve]"
CCOC(=O)c1c(NC(=O)Nc2ccc(F)cc2)sc2c1CCN(C)C2,"5.01 µM [rising, single point]",–
COC(=O)c1ccccc1NC(=S)NC(NC(=O)c1ccco1)C(Cl)(Cl)Cl (stereo unspecified),"7.94 µM [falling, partial curve]",–
CC1=NN(C(=O)c2csc(C)c2C)C(O)(C(F)(F)F)C1 (stereo unspecified),"23.1 µM [falling, partial curve, poor fit]",–
O=C(O)c1cc([N+](=O)[O-])ccc1C(=O)Nc1cccc([N+](=O)[O-])c1,"6.31 µM [rising, full curve, poor fit]",–
O=C(COCc1ccccc1)N[C@@H]1c2ccccc2CC[C@H]1OCc1ccccc1,–,"16.4 µM [falling, single point]"
COc1cccc(N=Nc2c(N)[nH]n3c(=O)cc(-c4ccccc4)nc23)c1,"0.355 µM [falling, full curve, poor fit]",–
O=c1c(-c2ccccc2)nc(-c2ccccc2)cn1O,"3.55 µM [rising, single point]",–
O=C(Nc1nccs1)c1cccc(NC(=O)C(F)(F)F)c1,"11.2 µM [falling, partial curve, poor fit]",–
O=C(Nc1ccccc1F)c1ccc(O)c2ncccc12,"25.9 µM [falling, single point]",–
Cn1cccc1Cc1nnc(SCC(=O)Nc2cccc(Cl)c2)n1-c1ccc(F)cc1,"29.1 µM [falling, single point]","16.4 µM [rising, partial curve, poor fit]"
O=C(CSc1n[nH]c(=O)n1C1CC1)Nc1ccc(F)c([N+](=O)[O-])c1,"25.9 µM [falling, partial curve, poor fit]",–

SMILES,AC50 [1],AC50 [2]
Cc1cccc(NC(=O)c2cccc(N3C(=O)C4C5C=CC(C6CC56)C4C3=O)c2)c1 (stereo unspecified),"15.8 µM [falling, single point]",–
CC(C)(C)N=C1NN=C(c2ccc(Cl)cc2)CS1,"12.6 µM [falling, partial curve]",–
O=C(CCl)NNC(=O)c1c(O)c2ccccc2[nH]c1=O,"35.5 µM [falling, single point]",–
CC(=O)C1=C(C)NC(SCC(=O)Nc2nc3ccccc3s2)=C(C#N)C1c1ccc(Cl)cc1 (stereo unspecified),"1.16 µM [falling, full curve, poor fit]",–
COCc1c(C(=O)N/N=C(/C)c2ccc(OCc3ccccc3)cc2)nnn1-c1nonc1N,"35.5 µM [rising, partial curve, poor fit]",–
O=C(Oc1ccc(-c2nnco2)cc1)N1CCCCC1,"29.1 µM [rising, single point]",–
NC(N)=Nc1cc2ccccc2c2ccccc12,"11.2 µM [falling, partial curve, poor fit]",–
CCOC(=O)Cc1csc(SCC(=O)Nc2cc(C)ccc2OC)n1,"12.6 µM [falling, partial curve, poor fit]",–
CCOc1ccccc1NC(=O)Cn1nc(-c2ccco2)ccc1=O,"0.112 µM [falling, full curve, poor fit]",–
CCn1cc(Cl)c(C(=O)Nc2ccc3c(c2)OCCO3)n1,"20 µM [falling, single point]",–
CCCS(=O)(=O)NCc1cn2c(C)csc2n1,"1.3 µM [falling, full curve, poor fit]",–
CCOC(=O)C1CCC(CN(Cc2ccc(OC)cc2)S(=O)(=O)c2ccc(C)cc2)CC1 (stereo unspecified),"12.6 µM [rising, single point]",–
O=C(Nc1cc(Cl)cc(Cl)c1)c1ccc(F)c(S(=O)(=O)N2CCCC2)c1,"6.31 µM [falling, partial curve]",–
O=C(Nc1cccc(C(F)(F)F)c1)c1cc2c(=O)c3ccccc3oc2nc1C(F)(F)F,"20 µM [rising, partial curve, poor fit]",–
Cn1c(CNC(=O)c2ccccc2F)nnc1SCC(=O)c1ccccc1,"20 µM [falling, partial curve, poor fit]",–
Cc1ccccc1-n1nc(C(=O)O)c(C)c(C#N)c1=O,"2 µM [rising, partial curve, poor fit]",–
CN(C)S(=O)(=O)c1cccc(NC(=O)COc2cccc3ccccc23)c1,"29.1 µM [falling, single point]",–
Cc1cccc(NC(=O)CCCc2ccccc2)c1C,"20 µM [falling, partial curve, poor fit]",–
Clc1cccc(Cl)c1NC1=NCCC1,"23.1 µM [rising, single point]",–
Cc1nc(N)sc1N=Nc1ccccc1C(F)(F)F,–,"20 µM [falling, partial curve, poor fit]"
COc1ccc(CNC(=O)C(c2ccco2)N(C(=O)Cc2cccs2)c2cccnc2)cc1 (stereo unspecified),"35.5 µM [falling, single point]","35.5 µM [rising, partial curve, poor fit]"

# Looked up one by one from above:
SMILES,AC50 [1],AC50 [2]
CCOC(=O)Cc1csc(SCC(=O)Nc2cc(C)ccc2OC)n1,"12.6 µM [falling, partial curve, poor fit]",–
Cc1cccc(C)c1NC1=NC(C)(C)N=C(N)N1,"22.4 µM [rising, partial curve, poor fit]",–
O=C(Nc1cccc(C(F)(F)F)c1)c1cc2c(=O)c3ccccc3oc2nc1C(F)(F)F,"20 µM [rising, partial curve, poor fit]",–
